Reference: patent US20230257454A1 (STAIDSON BEIJING BIOPHARMACEUTICALS, published 2023)
Residue numbers refer to the chain shown, from its start. Results are given in words; binding and its absence hold for the method and conditions named. Some binding calls cover weakened binding; strength is not graded here.

T1: human C5a (source not stated) (human, UniProt P01031 678-751)
T1 sequence: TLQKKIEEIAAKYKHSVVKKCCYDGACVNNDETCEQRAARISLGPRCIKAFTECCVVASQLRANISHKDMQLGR

T2: human endogenous C5a (human, UniProt P01031 678-751, limits assumed)
T2 sequence: T1 sequence

B1: Cab42-IgG1 (antibody, V domains shown)
VH: EMQLVESGGGLVQPGGSLRLSCAASGFTFSDYYMQWVRQAPGKGPEWVGLIRNKAVGETTQYAASVKGRFTISRDDSKNSVYLQMNSLKTEDTAVYYCVSRAGPPGLSWGQGVLVTVSS
VL: DIVMTQSPLSLPVTPGEPASISCRSSQSLLASDAYNYIDWYLQKPGQSPQLLIYGGSNRASGVPDRFSGSGSGTDFTLKISRVEAEDVGVYFCLQHRALPPTFGQGTKLEIK
notes: Full-length human IgG1; It was biotinylated in the peptide-Fc ELISA
B2: Cab15 scFv (scFv, V domains shown)
VH: VVQLVESGGGLVQPGGSLKVSCAASGFTFSDYYMQWVRQAPGKGPEWVGLIRNKAIGETTEYAASVKGRFTISRDDSKSIVYLQMSSLKPEDTAVYYCAGRLGPPGLSWGQGVLVTVSS
VL: DIVMTQNPLSLPVTPGEPASISCRSSQSLLATDGYTYLDWYLQKPGQSPQVLIYGGSKRASGVPDRFSGSGSGTDFTLKITKVEAEDVGIYYCMQHKALPPTFGQGTKLEIK
B3: Cab01 scFv (scFv, V domains shown)
VH: EVQLVESGGGMVQPGGSLRVSCAASGFTFTKYYMQWVRQAPGKGPEWVGLIRNKANGGTAEYVASVKDRFTISRDDSKSIAYLQMSSLKTEDTAVYYCVMRDNGYHWGQGVLVTVSS
VL: DIVLTQTPLSLPVTPGEPASISCRSSQRLLHSDGYTYLDWYLQKPGQSPQLLIYGGSNRASGVPDRFSGSGSGTDFTLKISKVEAEDVGVYYCMQHKALPLTFGGGTKVEIK
B4: Cab03 scFv (scFv, V domains shown)
VH: EVQLVESGGGLVQPGGSLKVSCAASGFIFSDYYMQWVRQAPGKGPEWVGLIRKKVNGGTTEYAASVKGRFTISRDDSKSIVYLQMSSLKIEDTAVYYCVSRAGPPGLTWGQGVLVTVSS
VL: DIVLTQTPLSLAVSPGEPASISCRSSQSLLASDGYTYLDWYLQKPGQSPQILIYGGSNRASGVPDRFSGRGSGTDFTLKITKVEAEDVGVYYCLQHRALPPTFGQGTKLEIK
B5: Cab13 scFv (scFv, V domains shown)
VH: B2 VH with E58G, E61Q, P90T, A99V, G100S, L102A, V117I
VL: B2 VL with T5I, T32S, T36N, L38M, Q50K, K58N, A98V
B6: Cab04 scFv (scFv, V domains shown)
VH: B4 VH with E6Q, I28T, K53N, V55A, N56I, E61Q, I90T, T108S, L114V
VL: B3 VL with L4M, T5I, S32T, T74S, M94L, V109L
B7: Cab05 scFv (scFv, V domains shown)
VH: B1 VH with E58G
VL: B1 VL with A34G
notes: scFv
B8: Cab05-IgG4 (antibody, V domains shown)
VH: B1 VH with E58G
VL: B1 VL with A34G
notes: Full-length human IgG4 with a human kappa or lambda light chain constant domain

target: T1, human C5a (source not stated); test: ELISA on the coated protein, biotinylated Cab42 titrated, SA-HRP, OD410

Binder	binding
B1	binds

target: T2, human endogenous C5a; test: ELISA, plate coated with human eC5a, scFv titrated, OD410

Binder	binding
B2	binds
B3	binds
B4	binds
B5	binds
B6	binds
B7	binds

target: T2, human endogenous C5a; test: SPR (Biacore T200)

Binder	binding
B8	binds

target: T2, human endogenous C5a; test: ELISA, C5a coated, scFv detected with anti-flag

Binder	binding
B2	binds
B3	binds
B4	binds
B5	binds
B6	binds
B7	binds
